PubChem BioAssay AID1259254 – NCATS – 2017

Screen: 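Finding genes that stop cells copying their DNA twice in one cycle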 (primary screen)
Cells: human HCT116 colorectal cancer cells
Knock-down reagent: single siRNA against human genes
Timing: 3 days
Measurement: 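Nuclei stained with Hoechst and imaged; cell-cycle phase assigned by DNA content; G2 share scaled per plate, non-targeting siRNA 0%, GMNN siRNA 100%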
Reading the numbers: G2 robust z-score and G2 cells, % of GMNN control: higher = more G2 cells, more excess DNA replication
Active means: 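An siRNA counts as active if its G2 robust z-score lies at least 5 MADs above the screen median; here such calls match roughly 38% of GMNN control or more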
The whole screen tested about 59,000 reagents; below is an unselected part. About 1,550 of all reagents (2.6%) count as active. 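G2 share is only a proxy for re-replication; each gene was hit by three separate siRNAs, and active genes were retested.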 A number with no mark means an inactive call. The numbers tell different reagents against one gene apart. Not all columns of the deposit are shown. Not stated in the record: the amount of reagent.

The opening 2 records, ahead of the listing:
gene,reagent,G2 robust z-score,"G2 cells, % of GMNN control"
FSCB (GeneID 84075),1,2.86,23.1
FSCB (GeneID 84075),2,-0.0432,2.66

The listing, from the first entry:
gene,reagent,G2 robust z-score,"G2 cells, % of GMNN control"
FSCB (GeneID 84075),1,2.86,23.1
FSCB (GeneID 84075),2,-0.0432,2.66
FSCB (GeneID 84075),3,0.0324,3.2
CFHR2 (GeneID 3080),1,-0.0795,2.41
CFHR2 (GeneID 3080),2,0.718,8.02
CFHR2 (GeneID 3080),3,-0.106,2.22
AMD1P3 (GeneID 728931),1,-0.328,0.663
AMD1P3 (GeneID 728931),2,0.258,4.78
AMD1P3 (GeneID 728931),3,0.554,6.87
DYNC1H1 (GeneID 1778),1,2.69,21.9
DYNC1H1 (GeneID 1778),2,6.43 (active),48.2
DYNC1H1 (GeneID 1778),3,-0.956,-3.76
ZNF800 (GeneID 168850),1,-0.608,-1.31
ZNF800 (GeneID 168850),2,0.554,6.86
ZNF800 (GeneID 168850),3,-0.413,0.0637
ZNF346 (GeneID 23567),1,-0.303,0.838
ZNF346 (GeneID 23567),2,-0.197,1.58
ZNF346 (GeneID 23567),3,1.73,15.1
SIX6 (GeneID 4990),1,-1.34,-6.48
SIX6 (GeneID 4990),2,1.14,11
SIX6 (GeneID 4990),3,-0.438,-0.113
SAT2 (GeneID 112483),1,-0.149,1.92
SAT2 (GeneID 112483),2,-1.03,-4.3
SAT2 (GeneID 112483),3,-1.03,-4.27
PRKAB1 (GeneID 5564),1,0.473,6.3
PRKAB1 (GeneID 5564),2,0.84,8.88
PRKAB1 (GeneID 5564),3,-0.267,1.09
CMTR1 (GeneID 23070),1,-0.56,-0.973
CMTR1 (GeneID 23070),2,-0.789,-2.58
CMTR1 (GeneID 23070),3,0.191,4.31
